{"source": "patent US11000514B2", "about": "“Antifungal compounds” (Duke University, priority 2014, dated 2021)", "system": "IL2", "experiment": "IL2 IC50 determination", "assay_type": "cell-based", "conditions": "range in words", "note": "Some results were stated once for a whole list of compounds, not compound by compound.", "data": [{"smiles": "CC[C@@H]1/C=C(\\C)C[C@H](C)C[C@H](OC)[C@H]2O[C@@](O)(C(=O)C(=O)N3CCCC[C@H]3C(=O)O[C@H](/C(C)=C/[C@@H]3CC[C@@H](O)[C@H](OC)C3)[C@H](C)[C@@H](O)C/C1=N/OCc1ccc(N)cc1)[C@H](C)C[C@@H]2OC.O", "note": "[Compound 110]", "values": [{"measurement": "IL2 IC50", "result": "nanomolar"}]}]}
